Results reported in PMC9258132, “Multi-omics profiling identifies a deregulated FUS-MAP1B axis in ALS/FTD–associated UBQLN2 mutants”.

Target: HA-tagged MAP1B (microtubule-associated protein 1B) (human)
Test: affinity purification with mass spectrometry; HA immunoprecipitation from lysates of HeLa cells stably expressing HA-MAP1B (parental HeLa as negative control, n = 4); MCLB buffer (50 mM Tris pH 7.4, 150 mM NaCl, 0.5% NP40), anti-HA agarose overnight at 4°C, elution with HA peptide, label-free quantification

binding: binds
B1: ubiquitin-binding protein FAF2 (UBXD8) (protein, UniProt Q96CS3 1-445)
chain: MAAPEERDLTQEQTEKLLQFQDLTGIESMDQCRHTLEQHNWNIEAAVQDRLNEQEGVPSVFNPPPSRPLQVNTADHRIYSYVVSRPQPRGLLGWGYYLIMLPFRFTYYTILDIFRFALRFIRPDPRSRVTDPVGDIVSFMHSFEEKYGRAHPVFYQGTYSQALNDAKRELRFLLVYLHGDDHQDSDEFCRNTLCAPEVISLINTRMLFWACSTNKPEGYRVSQALRENTYPFLAMIMLKDRRMTVVGRLEGLIQPDDLINQLTFIMDANQTYLVSERLEREERNQTQVLRQQQDEAYLASLRADQEKERKKREERERKRRKEEEVQQQKLAEERRRQNLQEEKERKLECLPPEPSPDDPESVKIIFKLPNDSRVERRFHFSQSLTVIHDFLFSLKESPEKFQIEANFPRRVLPCIPSEEWPNPPTLQEAGLSHTEVLFVQDLTDE

No constants are given. Whether binding was seen depends on the method and setting. Binding seen in cells or lysates may run through a third protein. These calls come from enrichment with a bait or labelling near it, and not all partners need be listed.
